Experimental data published in the supplement of paper PMC10849652.
The other results are listed elsewhere or left out.

Protein sequences, listed by entry. Tags and fused reporters are not part of them. Lines headed by an entry give the natural chain unless they say otherwise; changes in a name come on top.
UniProt P08962, whole entry, looked up: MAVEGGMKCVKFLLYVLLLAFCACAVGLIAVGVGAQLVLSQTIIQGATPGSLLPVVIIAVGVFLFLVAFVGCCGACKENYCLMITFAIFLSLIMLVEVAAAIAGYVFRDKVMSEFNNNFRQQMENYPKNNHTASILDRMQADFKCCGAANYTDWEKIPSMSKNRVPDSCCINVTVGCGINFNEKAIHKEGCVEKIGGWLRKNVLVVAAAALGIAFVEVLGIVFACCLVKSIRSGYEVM
UniProt Q9H6F5: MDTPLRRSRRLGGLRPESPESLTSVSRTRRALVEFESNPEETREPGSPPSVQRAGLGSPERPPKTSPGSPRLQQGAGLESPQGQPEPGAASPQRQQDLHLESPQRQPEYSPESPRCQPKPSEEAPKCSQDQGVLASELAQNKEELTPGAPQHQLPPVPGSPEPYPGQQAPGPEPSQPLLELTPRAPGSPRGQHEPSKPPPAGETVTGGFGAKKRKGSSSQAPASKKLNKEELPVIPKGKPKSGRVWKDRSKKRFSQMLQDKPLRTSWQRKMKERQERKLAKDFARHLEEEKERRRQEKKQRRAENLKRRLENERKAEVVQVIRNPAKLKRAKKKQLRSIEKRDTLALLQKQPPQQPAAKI
UniProt Q567U6, whole entry, looked up: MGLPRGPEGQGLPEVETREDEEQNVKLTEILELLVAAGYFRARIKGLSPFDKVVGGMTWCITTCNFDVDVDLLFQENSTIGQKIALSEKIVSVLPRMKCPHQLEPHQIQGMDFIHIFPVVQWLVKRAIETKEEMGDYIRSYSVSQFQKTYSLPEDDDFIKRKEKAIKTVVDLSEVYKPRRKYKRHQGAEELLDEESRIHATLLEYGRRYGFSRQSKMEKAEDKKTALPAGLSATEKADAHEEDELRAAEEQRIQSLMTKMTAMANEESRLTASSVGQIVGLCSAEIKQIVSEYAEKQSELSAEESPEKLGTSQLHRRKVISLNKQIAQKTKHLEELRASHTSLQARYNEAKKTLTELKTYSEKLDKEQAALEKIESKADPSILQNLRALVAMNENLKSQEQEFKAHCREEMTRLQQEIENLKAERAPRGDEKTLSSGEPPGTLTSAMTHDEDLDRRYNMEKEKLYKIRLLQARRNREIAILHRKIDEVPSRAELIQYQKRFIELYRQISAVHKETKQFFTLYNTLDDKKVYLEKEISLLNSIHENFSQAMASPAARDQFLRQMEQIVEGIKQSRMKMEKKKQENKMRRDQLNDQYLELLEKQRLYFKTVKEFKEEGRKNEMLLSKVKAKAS
UniProt P04040: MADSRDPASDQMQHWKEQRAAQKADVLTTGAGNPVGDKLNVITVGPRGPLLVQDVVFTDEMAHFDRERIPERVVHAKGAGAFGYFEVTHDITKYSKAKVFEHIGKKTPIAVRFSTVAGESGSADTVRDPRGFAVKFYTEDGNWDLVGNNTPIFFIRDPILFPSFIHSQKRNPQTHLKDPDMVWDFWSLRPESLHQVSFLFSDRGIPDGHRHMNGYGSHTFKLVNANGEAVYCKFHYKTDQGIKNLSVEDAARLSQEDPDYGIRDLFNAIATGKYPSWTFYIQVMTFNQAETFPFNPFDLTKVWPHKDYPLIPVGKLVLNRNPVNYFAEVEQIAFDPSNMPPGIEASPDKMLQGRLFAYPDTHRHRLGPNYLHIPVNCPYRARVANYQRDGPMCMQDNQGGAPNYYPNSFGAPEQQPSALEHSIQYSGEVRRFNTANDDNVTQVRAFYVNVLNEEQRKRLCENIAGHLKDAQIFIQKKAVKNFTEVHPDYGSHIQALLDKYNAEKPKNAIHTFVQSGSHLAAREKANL
UniProt O15446, whole entry, looked up: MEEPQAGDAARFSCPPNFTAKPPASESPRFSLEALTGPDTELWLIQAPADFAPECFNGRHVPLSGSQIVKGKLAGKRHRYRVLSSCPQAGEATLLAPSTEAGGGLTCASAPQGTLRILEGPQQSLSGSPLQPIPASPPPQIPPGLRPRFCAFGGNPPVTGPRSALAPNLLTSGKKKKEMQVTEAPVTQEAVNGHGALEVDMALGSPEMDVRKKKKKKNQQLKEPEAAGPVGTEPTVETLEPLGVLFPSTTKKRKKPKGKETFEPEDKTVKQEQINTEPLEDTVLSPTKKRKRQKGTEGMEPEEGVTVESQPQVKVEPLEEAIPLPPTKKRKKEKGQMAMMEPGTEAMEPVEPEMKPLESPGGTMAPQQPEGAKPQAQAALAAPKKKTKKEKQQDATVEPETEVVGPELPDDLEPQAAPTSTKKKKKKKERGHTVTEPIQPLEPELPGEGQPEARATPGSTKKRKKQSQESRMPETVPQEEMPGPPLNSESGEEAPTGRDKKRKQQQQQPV
UniProt Q96CT7: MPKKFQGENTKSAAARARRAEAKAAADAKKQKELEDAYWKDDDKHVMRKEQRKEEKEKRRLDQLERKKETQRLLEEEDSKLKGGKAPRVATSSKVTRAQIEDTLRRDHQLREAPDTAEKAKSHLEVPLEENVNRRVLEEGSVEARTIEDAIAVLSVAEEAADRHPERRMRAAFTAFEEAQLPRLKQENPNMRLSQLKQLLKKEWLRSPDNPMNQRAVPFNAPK
UniProt Q96ER9: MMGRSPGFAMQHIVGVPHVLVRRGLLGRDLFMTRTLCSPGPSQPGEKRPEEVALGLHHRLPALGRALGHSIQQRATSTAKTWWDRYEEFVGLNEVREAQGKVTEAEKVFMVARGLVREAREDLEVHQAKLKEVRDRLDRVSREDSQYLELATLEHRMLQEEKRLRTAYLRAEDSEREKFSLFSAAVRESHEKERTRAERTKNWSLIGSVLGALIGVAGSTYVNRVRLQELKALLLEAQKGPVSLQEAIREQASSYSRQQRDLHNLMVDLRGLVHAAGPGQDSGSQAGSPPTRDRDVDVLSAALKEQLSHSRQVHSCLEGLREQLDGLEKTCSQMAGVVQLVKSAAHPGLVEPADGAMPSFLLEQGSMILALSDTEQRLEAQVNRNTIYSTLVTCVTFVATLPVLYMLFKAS
UniProt O75081: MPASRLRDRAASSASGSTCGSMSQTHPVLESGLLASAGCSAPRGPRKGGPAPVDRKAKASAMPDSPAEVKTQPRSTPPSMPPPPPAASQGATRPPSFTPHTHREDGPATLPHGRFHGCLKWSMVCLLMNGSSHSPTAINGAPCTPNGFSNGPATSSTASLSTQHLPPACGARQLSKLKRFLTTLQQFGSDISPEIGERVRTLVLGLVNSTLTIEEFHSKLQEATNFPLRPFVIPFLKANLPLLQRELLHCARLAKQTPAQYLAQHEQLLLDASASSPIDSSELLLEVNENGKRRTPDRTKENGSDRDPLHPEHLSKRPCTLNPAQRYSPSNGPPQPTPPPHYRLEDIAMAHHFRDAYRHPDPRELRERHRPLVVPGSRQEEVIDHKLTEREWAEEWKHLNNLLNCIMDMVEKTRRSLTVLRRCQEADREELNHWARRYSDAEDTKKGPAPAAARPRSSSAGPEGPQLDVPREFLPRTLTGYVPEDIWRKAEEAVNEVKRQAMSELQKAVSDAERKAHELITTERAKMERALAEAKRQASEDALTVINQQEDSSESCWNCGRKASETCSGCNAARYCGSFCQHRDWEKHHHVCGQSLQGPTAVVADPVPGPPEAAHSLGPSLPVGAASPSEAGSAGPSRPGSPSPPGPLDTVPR
UniProt O15234, whole entry, looked up: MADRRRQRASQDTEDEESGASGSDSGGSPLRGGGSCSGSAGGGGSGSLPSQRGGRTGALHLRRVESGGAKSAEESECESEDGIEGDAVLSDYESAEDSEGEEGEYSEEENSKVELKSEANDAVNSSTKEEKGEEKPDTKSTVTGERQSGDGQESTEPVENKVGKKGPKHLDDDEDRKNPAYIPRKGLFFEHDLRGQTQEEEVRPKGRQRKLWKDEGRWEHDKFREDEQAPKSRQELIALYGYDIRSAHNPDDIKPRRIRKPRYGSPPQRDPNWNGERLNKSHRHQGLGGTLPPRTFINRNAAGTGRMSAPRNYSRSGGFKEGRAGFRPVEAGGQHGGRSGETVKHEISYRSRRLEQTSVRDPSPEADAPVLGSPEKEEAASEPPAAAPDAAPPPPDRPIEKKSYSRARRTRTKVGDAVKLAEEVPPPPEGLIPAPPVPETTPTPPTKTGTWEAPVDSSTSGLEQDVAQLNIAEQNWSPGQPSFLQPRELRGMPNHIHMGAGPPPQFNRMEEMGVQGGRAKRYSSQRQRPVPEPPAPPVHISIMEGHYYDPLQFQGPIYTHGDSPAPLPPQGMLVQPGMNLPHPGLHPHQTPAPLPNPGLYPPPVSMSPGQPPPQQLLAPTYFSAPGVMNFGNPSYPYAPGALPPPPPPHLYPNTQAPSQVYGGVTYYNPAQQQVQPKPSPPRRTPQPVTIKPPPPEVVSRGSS
UniProt Q8N4T8: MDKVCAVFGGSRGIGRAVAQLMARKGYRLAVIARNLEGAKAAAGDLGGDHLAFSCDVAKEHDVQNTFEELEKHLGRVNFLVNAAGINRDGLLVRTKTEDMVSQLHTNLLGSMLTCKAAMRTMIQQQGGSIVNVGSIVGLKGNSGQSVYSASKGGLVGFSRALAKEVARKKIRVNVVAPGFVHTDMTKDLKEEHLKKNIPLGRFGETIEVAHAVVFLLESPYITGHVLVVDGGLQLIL
UniProt O60826, whole entry, looked up: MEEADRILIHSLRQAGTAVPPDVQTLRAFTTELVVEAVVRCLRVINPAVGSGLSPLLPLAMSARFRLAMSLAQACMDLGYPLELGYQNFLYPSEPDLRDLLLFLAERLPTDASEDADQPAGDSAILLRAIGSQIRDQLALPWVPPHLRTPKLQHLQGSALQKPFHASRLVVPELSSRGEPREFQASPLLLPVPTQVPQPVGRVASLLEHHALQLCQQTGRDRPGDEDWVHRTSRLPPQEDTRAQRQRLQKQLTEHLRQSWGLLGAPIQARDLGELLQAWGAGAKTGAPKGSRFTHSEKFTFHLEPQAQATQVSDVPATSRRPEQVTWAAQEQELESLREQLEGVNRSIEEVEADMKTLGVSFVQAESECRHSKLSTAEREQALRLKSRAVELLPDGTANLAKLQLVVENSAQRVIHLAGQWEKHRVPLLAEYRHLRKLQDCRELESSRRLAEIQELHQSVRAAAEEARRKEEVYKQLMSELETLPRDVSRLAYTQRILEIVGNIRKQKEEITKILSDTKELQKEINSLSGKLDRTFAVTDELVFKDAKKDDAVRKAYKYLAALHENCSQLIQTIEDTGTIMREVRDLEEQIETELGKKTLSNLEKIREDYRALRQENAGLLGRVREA
UniProt P42575: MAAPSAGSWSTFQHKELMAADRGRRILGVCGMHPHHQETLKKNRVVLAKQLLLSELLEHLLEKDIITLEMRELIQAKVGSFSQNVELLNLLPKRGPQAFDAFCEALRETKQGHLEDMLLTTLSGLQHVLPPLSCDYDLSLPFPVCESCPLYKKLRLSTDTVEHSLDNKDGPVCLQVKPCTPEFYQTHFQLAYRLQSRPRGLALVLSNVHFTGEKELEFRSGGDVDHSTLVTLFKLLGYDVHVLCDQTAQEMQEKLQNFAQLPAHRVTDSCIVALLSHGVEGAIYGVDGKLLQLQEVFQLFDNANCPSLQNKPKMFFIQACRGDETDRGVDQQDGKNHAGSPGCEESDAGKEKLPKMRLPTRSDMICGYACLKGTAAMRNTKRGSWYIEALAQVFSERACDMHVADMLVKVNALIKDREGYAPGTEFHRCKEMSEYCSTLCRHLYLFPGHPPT
UniProt Q8N163, whole entry, looked up: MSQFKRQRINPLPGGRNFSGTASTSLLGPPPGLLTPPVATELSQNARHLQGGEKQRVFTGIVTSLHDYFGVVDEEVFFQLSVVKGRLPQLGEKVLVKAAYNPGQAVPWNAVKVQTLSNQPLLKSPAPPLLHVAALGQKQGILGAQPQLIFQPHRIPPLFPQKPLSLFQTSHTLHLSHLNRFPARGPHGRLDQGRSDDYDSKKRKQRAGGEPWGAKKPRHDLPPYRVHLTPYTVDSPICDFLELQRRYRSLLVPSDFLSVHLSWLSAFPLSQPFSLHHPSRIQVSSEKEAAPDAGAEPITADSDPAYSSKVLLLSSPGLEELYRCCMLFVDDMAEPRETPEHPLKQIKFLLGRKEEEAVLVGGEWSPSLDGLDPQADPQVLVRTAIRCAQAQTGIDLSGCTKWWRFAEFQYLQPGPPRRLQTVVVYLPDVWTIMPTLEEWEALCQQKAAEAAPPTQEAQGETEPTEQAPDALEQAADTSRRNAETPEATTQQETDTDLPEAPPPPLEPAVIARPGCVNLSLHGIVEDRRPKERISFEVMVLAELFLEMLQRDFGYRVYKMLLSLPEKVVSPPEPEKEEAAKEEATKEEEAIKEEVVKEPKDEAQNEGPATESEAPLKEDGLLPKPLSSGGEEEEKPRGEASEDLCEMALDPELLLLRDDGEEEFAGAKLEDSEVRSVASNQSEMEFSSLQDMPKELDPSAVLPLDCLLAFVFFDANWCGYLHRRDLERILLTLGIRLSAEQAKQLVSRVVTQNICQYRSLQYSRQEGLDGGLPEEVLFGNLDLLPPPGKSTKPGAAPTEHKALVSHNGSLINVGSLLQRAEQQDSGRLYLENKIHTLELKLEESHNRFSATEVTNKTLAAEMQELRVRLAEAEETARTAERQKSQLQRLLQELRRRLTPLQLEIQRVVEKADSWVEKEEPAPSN

Key:
Experiment in all cases: log2 fold change, soluble protein after heating vs DMSO (PISA); higher = thermal stabilisation; K562 cells, 10 uM, 30 min; active = over 0.2 and 3.5 SD of the protein, either way, in both replicates (recomputed)
bafetinib = compound: Cc1ccc(NC(=O)c2ccc(CN3CC[C@H](N(C)C)C3)c(C(F)(F)F)c2)cc1Nc1nccc(-c2cncnc2)n1 [bafetinib]
Method in brief: (§1)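 K562 cells at 2×10^6 cells/mL were given 10 μM compound for 30 min. Aliquots then went through 3 min of heating across 48°C-58°C, were pooled, and were extracted in PBS with 0.5% NP-40 at 4°C, and the supernatant after 21,000xg for 90 min was quantified by TMTpro 16plex LC-MS/MS with channel sums equalised. Thermal stability relative to control samples, from duplicates, is given as log2 fold change.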

[1] = compound: Cc1cccc(CC(=O)N2CCc3c2ccc(-c2cn(C)c4ncnc(N)c24)c3F)n1
Method in brief: as §1

nilotinib = compound: Cc1cn(-c2cc(NC(=O)c3ccc(C)c(Nc4nccc(-c5cccnc5)n4)c3)cc(C(F)(F)F)c2)cn1 [nilotinib]
Method in brief: as §1

[2] = compound: Cc1nc(Nc2n[nH]c3c2CN(C(=O)N[C@H](CN(C)C)c2ccccc2)C3(C)C)c2sccc2n1
Method in brief: as §1

dasatinib = compound: Cc1nc(Nc2ncc(C(=O)Nc3c(C)cccc3Cl)s2)cc(N2CCN(CCO)CC2)n1 [dasatinib]
Method in brief: as §1

[3] = compound: Cc1ncc(-c2ccnc(Nc3ccc(S(C)(=O)=O)cc3)n2)n1C(C)C
Method in brief: as §1

[4] = compound: Cn1cc(-c2ccc3c(c2)CCN3C(=O)Cc2cccc(C(F)(F)F)c2)c2c(N)ncnc21
Method in brief: as §1

[5] = compound: Cn1cc(-c2ccc3nnc(C(F)(F)c4ccc5ncccc5c4)n3n2)cn1
Method in brief: as §1

tipifarnib = compound: Cn1cncc1[C@@](N)(c1ccc(Cl)cc1)c1ccc2c(c1)c(-c1cccc(Cl)c1)cc(=O)n2C [tipifarnib]
Method in brief: as §1

mubritinib = compound: FC(F)(F)c1ccc(/C=C/c2nc(COc3ccc(CCCCn4ccnn4)cc3)co2)cc1 [mubritinib]
Method in brief: as §1

[6] = compound: NC(=O)Nc1cc(-c2cccc(F)c2)sc1C(=O)N[C@H]1CCCNC1
Method in brief: as §1

[7] = compound: NC(=O)c1cnc(N[C@@H]2CCCC[C@@H]2N)nc1Nc1cccc(-n2nccn2)c1
Method in brief: as §1

[8] = compound: NC1(c2ccc(-c3nc4ccn5c(=O)[nH]nc5c4cc3-c3ccccc3)cc2)CCC1
Method in brief: as §1

[9] = compound: NCC(=O)Nc1ccc(-n2nc(C(F)(F)F)cc2-c2ccc3c(ccc4ccccc43)c2)cc1
Method in brief: as §1

entinostat = compound: Nc1ccccc1NC(=O)c1ccc(CNC(=O)OCc2cccnc2)cc1 [entinostat]
Method in brief: as §1

vorinostat = compound: O=C(CCCCCCC(=O)Nc1ccccc1)NO [vorinostat]
Method in brief: as §1

citarinostat = compound: O=C(CCCCCCNC(=O)c1cnc(N(c2ccccc2)c2ccccc2Cl)nc1)NO [citarinostat]
Method in brief: as §1

silmitasertib = compound: O=C(O)c1ccc2c(c1)nc(Nc1cccc(Cl)c1)c1ccncc12 [silmitasertib]
Method in brief: as §1

[10] = compound: O=C1NC(=O)C(c2cnc3ccccn23)=C1c1cn2c3c(cc(F)cc13)CN(C(=O)N1CCCCC1)CC2
Method in brief: as §1

[11] = compound: c1cc(OCCN2CCCCC2)cc(-c2n[nH]c3ccc(-c4nnc[nH]4)cc23)c1
Method in brief: as §1

| Target | log2 fold change (bafetinib) | log2 fold change [1] | log2 fold change (nilotinib) | log2 fold change [2] | log2 fold change (dasatinib) | log2 fold change [3] | log2 fold change [4] | log2 fold change [5] | log2 fold change (tipifarnib) | log2 fold change (mubritinib) | log2 fold change [6] | log2 fold change [7] | log2 fold change [8] | log2 fold change [9] | log2 fold change (entinostat) | log2 fold change (vorinostat) | log2 fold change (citarinostat) | log2 fold change (silmitasertib) | log2 fold change [10] | log2 fold change [11] |
| --- | --- | --- | --- | --- | --- | --- | --- | --- | --- | --- | --- | --- | --- | --- | --- | --- | --- | --- | --- | --- |
| CD63 (UniProt P08962) | inactive: -0.069 | inactive: -0.059 | inactive: -0.023 | inactive: 0.074 | inactive: 0.021 | inactive: 0.002 | inactive: -0.047 | inactive: 0.002 | inactive: 0.043 | inactive: -0.003 | inactive: -0.026 | inactive: -0.001 | inactive: -0.05 | inactive: -0.035 | inactive: -0.004 | inactive: -0.066 | inactive: 0.026 | inactive: 0.02 | inactive: 0.051 | inactive: -0.063 |
| CCDC86 (UniProt Q9H6F5) | inactive: 0.334 | inactive: 0.028 | inactive: 0.035 | inactive: 0.067 | inactive: 0.19 | inactive: 0.02 | inactive: -0.26 | inactive: -0.107 | inactive: 0.136 | inactive: -0.12 | inactive: 0.316 | inactive: 0.201 | inactive: 0.225 | inactive: 0.187 | inactive: -0.117 | inactive: -0.035 | inactive: -0.18 | inactive: 0.124 | inactive: 0.14 | inactive: -0.123 |
| CC2D1A (UniProt Q6P1N0) | inactive: -0.071 | inactive: 0.09 | inactive: -0.008 | inactive: -0.003 | inactive: -0.129 | inactive: 0.02 | inactive: 0.055 | inactive: 0.008 | inactive: -0.05 | inactive: -0.076 | inactive: -0.01 | inactive: 0.031 | inactive: 0.018 | inactive: -0.012 | inactive: 0.068 | inactive: 0.03 | inactive: 0 | inactive: 0.119 | inactive: -0.043 | inactive: -0.059 |
| CCDC93 (UniProt Q567U6) | inactive: -0.034 | inactive: -0.006 | inactive: -0.078 | inactive: -0.033 | inactive: -0.201 | inactive: 0.057 | inactive: -0.076 | inactive: -0.077 | inactive: 0.022 | inactive: 0.05 | inactive: 0.013 | inactive: 0.01 | inactive: -0.028 | inactive: -0.021 | inactive: -0.012 | inactive: 0.019 | inactive: 0.038 | inactive: 0.123 | inactive: -0.051 | inactive: 0.051 |
| CARNMT1 (UniProt Q8N4J0) | inactive: -0.044 | inactive: 0.1 | inactive: -0.013 | inactive: 0.012 | inactive: -0.104 | inactive: 0.077 | inactive: 0.017 | inactive: 0.027 | inactive: -0.008 | inactive: -0.01 | inactive: -0.062 | inactive: -0.022 | inactive: -0.09 | inactive: -0.039 | inactive: 0.035 | inactive: 0.053 | inactive: 0.015 | inactive: 0.005 | inactive: 0.014 | inactive: 0.001 |
| CAT (UniProt P04040) | inactive: -0.04 | inactive: -0.017 | inactive: -0.006 | inactive: 0.01 | inactive: 0.068 | inactive: 0 | inactive: 0.025 | inactive: 0.041 | inactive: -0.024 | inactive: 0.037 | inactive: 0.003 | inactive: 0.001 | inactive: 0.008 | inactive: 0.018 | inactive: -0.016 | inactive: 0.004 | inactive: -0.013 | inactive: -0.023 | inactive: -0.025 | inactive: 0.012 |
| CD3EAP isoform 2 (UniProt O15446) | inactive: 0.1 | inactive: -0.061 | inactive: 0.013 | inactive: 0.156 | inactive: 0.167 | inactive: -0.167 | inactive: -0.065 | inactive: -0.086 | inactive: 0.032 | inactive: -0.054 | inactive: 0.181 | inactive: 0.075 | inactive: 0.187 | inactive: 0.041 | inactive: -0.063 | inactive: -0.014 | inactive: -0.049 | inactive: 0.12 | inactive: 0.161 | inactive: -0.121 |
| CCDC124 (UniProt Q96CT7) | inactive: 0.053 | inactive: -0.026 | inactive: -0.006 | inactive: 0.031 | inactive: 0.067 | inactive: -0.004 | inactive: -0.046 | inactive: -0.036 | inactive: 0.019 | inactive: 0.006 | inactive: 0.002 | inactive: -0.02 | inactive: 0.094 | inactive: 0 | inactive: -0.026 | inactive: -0.002 | inactive: -0.039 | inactive: 0.016 | inactive: 0.072 | inactive: -0.053 |
| CCDC51 (UniProt Q96ER9) | inactive: -0.156 | inactive: 0.112 | inactive: -0.006 | inactive: 0.003 | inactive: -0.048 | inactive: -0.041 | inactive: 0.042 | inactive: -0.005 | inactive: -0.075 | inactive: 0.016 | inactive: 0.12 | inactive: -0.034 | inactive: -0.086 | inactive: 0.007 | inactive: 0.074 | inactive: 0.034 | inactive: 0.036 | inactive: -0.004 | inactive: -0.082 | inactive: 0.007 |
| CBFA2T3 (UniProt O75081) | inactive: 0.059 | inactive: 0.029 | inactive: 0.112 | inactive: -0.032 | inactive: -0.058 | inactive: -0.013 | inactive: -0.085 | inactive: -0.074 | inactive: 0.117 | inactive: -0.004 | inactive: -0.02 | inactive: 0.078 | inactive: -0.036 | inactive: -0.201 | inactive: 0.019 | inactive: 0.019 | inactive: 0.013 | inactive: 0.073 | inactive: 0.058 | inactive: -0.117 |
| CASC3 (UniProt O15234) | inactive: -0.064 | inactive: -0.069 | inactive: -0.064 | active: 0.481 | inactive: 0.031 | active: 0.511 | inactive: -0.079 | inactive: -0.069 | inactive: 0.004 | inactive: 0.084 | inactive: 0.015 | inactive: 0.238 | inactive: -0.01 | inactive: 0.001 | inactive: -0.039 | inactive: -0.072 | inactive: 0 | inactive: 0.054 | inactive: 0.24 | inactive: -0.133 |
| CBR4 (UniProt Q8N4T8) | inactive: -0.072 | inactive: -0.098 | inactive: 0.017 | inactive: 0.036 | inactive: -0.015 | inactive: -0.042 | inactive: 0.02 | inactive: 0 | inactive: -0.002 | inactive: -0.028 | inactive: 0.041 | inactive: 0.01 | inactive: -0.002 | inactive: -0.026 | inactive: 0.001 | inactive: -0.042 | inactive: -0.043 | inactive: 0.029 | inactive: -0.042 | inactive: -0.055 |
| CCDC22 (UniProt O60826) | inactive: 0 | inactive: 0.013 | inactive: -0.034 | inactive: -0.014 | inactive: -0.087 | inactive: 0.064 | inactive: -0.025 | inactive: -0.023 | inactive: 0.014 | inactive: 0.041 | inactive: 0.052 | inactive: -0.023 | inactive: -0.16 | inactive: -0.093 | inactive: -0.034 | inactive: 0.009 | inactive: 0.022 | inactive: 0.067 | inactive: 0.079 | inactive: 0.018 |
| CCDC32 isoform 2 (UniProt Q9BV29) | inactive: 0.006 | inactive: -0.084 | inactive: 0.059 | inactive: -0.05 | inactive: 0.056 | inactive: -0.024 | inactive: 0.043 | inactive: -0.152 | inactive: 0.096 | inactive: 0.078 | inactive: -0.038 | inactive: -0.114 | inactive: 0.04 | inactive: -0.04 | inactive: 0.024 | inactive: -0.01 | inactive: 0.054 | inactive: 0.029 | inactive: -0.077 | inactive: -0.103 |
| CASP2 (UniProt P42575) | inactive: 0.041 | inactive: -0.035 | inactive: -0.037 | inactive: 0.076 | inactive: -0.165 | inactive: 0.114 | inactive: 0.105 | inactive: -0.056 | inactive: -0.118 | inactive: 0.006 | inactive: -0.317 | inactive: -0.047 | inactive: -0.099 | inactive: 0.065 | inactive: 0.017 | inactive: 0.13 | inactive: 0.058 | inactive: 0.051 | inactive: -0.008 | inactive: -0.032 |
| CCAR2 isoform 2 (UniProt Q8N163) | inactive: 0.007 | inactive: 0.01 | inactive: -0.053 | inactive: -0.023 | inactive: -0.176 | inactive: -0.157 | inactive: -0.009 | inactive: 0.042 | inactive: 0.011 | inactive: 0.031 | inactive: -0.056 | inactive: -0.106 | inactive: -0.013 | inactive: -0.088 | inactive: 0.089 | inactive: 0.168 | inactive: 0.033 | inactive: -0.039 | inactive: -0.151 | inactive: 0.033 |

Already shown: entries from further up.

| Target | log2 fold change (bafetinib) | log2 fold change [1] | log2 fold change (nilotinib) | log2 fold change [2] | log2 fold change (dasatinib) | log2 fold change [3] | log2 fold change [4] | log2 fold change [5] | log2 fold change (tipifarnib) | log2 fold change (mubritinib) | log2 fold change [6] | log2 fold change [7] | log2 fold change [8] | log2 fold change [9] | log2 fold change (entinostat) | log2 fold change (vorinostat) | log2 fold change (citarinostat) | log2 fold change (silmitasertib) | log2 fold change [10] | log2 fold change [11] |
| --- | --- | --- | --- | --- | --- | --- | --- | --- | --- | --- | --- | --- | --- | --- | --- | --- | --- | --- | --- | --- |
| CCDC22 (UniProt O60826) | inactive: 0 | inactive: 0.013 | inactive: -0.034 | inactive: -0.014 | inactive: -0.087 | inactive: 0.064 | inactive: -0.025 | inactive: -0.023 | inactive: 0.014 | inactive: 0.041 | inactive: 0.052 | inactive: -0.023 | inactive: -0.16 | inactive: -0.093 | inactive: -0.034 | inactive: 0.009 | inactive: 0.022 | inactive: 0.067 | inactive: 0.079 | inactive: 0.018 |
| CCDC32 isoform 2 (UniProt Q9BV29) | inactive: 0.006 | inactive: -0.084 | inactive: 0.059 | inactive: -0.05 | inactive: 0.056 | inactive: -0.024 | inactive: 0.043 | inactive: -0.152 | inactive: 0.096 | inactive: 0.078 | inactive: -0.038 | inactive: -0.114 | inactive: 0.04 | inactive: -0.04 | inactive: 0.024 | inactive: -0.01 | inactive: 0.054 | inactive: 0.029 | inactive: -0.077 | inactive: -0.103 |
